Reference: patent US20080292561A1, “Pyrazolo-Pyrimidine Derivatives as Anti-Inflammatory Agents” (Glaxo Group Limited, priority 2005, published 2008)
Some of these results come from one statement about several compounds together.

How the values were obtained:
glucocorticoid receptor = biological target: T1, glucocorticoid receptor (Homo sapiens, UniProt P04150); assay: Glucocorticoid receptor binding assay (fluorescence polarisation, competition with Alexa 555 labelled dexamethasone derivative); conditions: partially purified full length glucocorticoid receptor; 2 hrs at room temperature
T1 construct: a partially purified full length glucocorticoid receptor
T1 sequence (P04150 1-777): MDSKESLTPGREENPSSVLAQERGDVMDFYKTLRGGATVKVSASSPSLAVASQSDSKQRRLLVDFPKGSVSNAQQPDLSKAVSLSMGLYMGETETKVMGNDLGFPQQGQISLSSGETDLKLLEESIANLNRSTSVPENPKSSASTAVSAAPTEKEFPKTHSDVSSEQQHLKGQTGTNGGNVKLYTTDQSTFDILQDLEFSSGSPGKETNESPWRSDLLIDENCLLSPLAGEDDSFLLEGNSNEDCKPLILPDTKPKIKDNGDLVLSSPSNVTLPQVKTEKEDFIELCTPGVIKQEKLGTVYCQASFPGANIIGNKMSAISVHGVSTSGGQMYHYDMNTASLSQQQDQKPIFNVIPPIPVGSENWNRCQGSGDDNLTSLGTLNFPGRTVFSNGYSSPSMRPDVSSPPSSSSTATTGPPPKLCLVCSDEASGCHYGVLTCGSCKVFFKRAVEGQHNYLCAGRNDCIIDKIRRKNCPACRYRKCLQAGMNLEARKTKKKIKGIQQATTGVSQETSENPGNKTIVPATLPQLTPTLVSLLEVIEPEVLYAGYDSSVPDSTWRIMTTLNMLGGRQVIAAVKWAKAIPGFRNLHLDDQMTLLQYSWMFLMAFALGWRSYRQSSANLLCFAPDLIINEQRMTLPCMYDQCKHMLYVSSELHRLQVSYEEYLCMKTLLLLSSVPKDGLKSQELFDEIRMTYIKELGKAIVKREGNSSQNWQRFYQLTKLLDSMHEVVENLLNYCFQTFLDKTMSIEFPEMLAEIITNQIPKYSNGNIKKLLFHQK

Progesterone Receptor = biological target: T2, Progesterone Receptor (Homo sapiens, UniProt P06401); assay: Assay for progesterone receptor activity (CV-1 cells transduced with PRb-BacMam and MMTV-BacMam); type: cell-based; conditions: 24 h, Steady Glo
T2 construct: expressed in transfected cells; host or cells: CV-1 cells transduced with PRb-BacMam and MMTV-BacMam (luciferase reporter)
T2 sequence (P06401 1-933): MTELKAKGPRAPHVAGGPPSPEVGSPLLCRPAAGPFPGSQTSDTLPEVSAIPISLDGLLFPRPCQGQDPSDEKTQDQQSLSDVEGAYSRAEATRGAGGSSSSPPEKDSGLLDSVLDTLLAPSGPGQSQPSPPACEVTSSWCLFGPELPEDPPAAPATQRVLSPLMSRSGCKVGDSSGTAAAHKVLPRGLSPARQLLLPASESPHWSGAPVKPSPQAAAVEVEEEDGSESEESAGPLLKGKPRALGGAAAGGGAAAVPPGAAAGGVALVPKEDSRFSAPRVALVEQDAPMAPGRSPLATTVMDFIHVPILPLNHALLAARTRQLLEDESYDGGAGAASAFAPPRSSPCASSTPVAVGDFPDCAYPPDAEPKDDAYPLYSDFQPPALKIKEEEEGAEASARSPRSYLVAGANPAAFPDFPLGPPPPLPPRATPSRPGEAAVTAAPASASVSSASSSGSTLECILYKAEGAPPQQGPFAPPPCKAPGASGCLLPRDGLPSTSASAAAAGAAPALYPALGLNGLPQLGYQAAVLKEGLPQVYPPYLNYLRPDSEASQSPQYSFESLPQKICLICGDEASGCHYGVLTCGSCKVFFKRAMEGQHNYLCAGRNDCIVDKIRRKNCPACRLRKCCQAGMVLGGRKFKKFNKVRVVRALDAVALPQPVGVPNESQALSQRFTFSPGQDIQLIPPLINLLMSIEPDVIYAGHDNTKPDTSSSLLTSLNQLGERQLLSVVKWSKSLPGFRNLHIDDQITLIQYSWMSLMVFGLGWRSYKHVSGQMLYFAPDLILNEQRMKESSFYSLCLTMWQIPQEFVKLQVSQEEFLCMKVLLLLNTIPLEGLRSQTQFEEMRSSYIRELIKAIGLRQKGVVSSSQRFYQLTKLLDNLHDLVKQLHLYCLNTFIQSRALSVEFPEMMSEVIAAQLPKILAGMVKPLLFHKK

CCc1nc(NCC(O)(CC(C)(C)c2cc(F)ccc2OC)C(F)(F)F)c2cnn(-c3ccc(F)cc3)c2n1 (stereo not shown) [Example 24, 2-({[6-Ethyl-1-(4-fluorophenyl)-1H-pyrazolo[3,4-d]pyrimidin-4-yl]amino}methyl)-1,1,1-trifluoro-4-[5-fluoro-2-(methyloxy)phenyl]-4-methyl-2-pentanol]
glucocorticoid binding pIC50 (glucocorticoid receptor): > 6.5
pEC50, progesterone receptor activity (Progesterone Receptor): < 5.5

COc1ccc(F)cc1C(C)(C)CC(O)(CNc1nc(C)nc2c1cnn2-c1ccncc1)C(F)(F)F (stereo not shown) [Example 18, 1,1,1-Trifluoro-4-[5-fluoro-2-(methyloxy)phenyl]-4-methyl-2-({[6-methyl-1-(4-pyridinyl)-1H-pyrazolo[3,4-d]pyrimidin-4-yl]amino}methyl)-2-pentanol]
glucocorticoid binding pIC50 (glucocorticoid receptor): > 6.5
pEC50, progesterone receptor activity (Progesterone Receptor): < 5.5

COc1ccc(F)cc1C(C)(C)CC(O)(CNc1nc(C)nc2c1cnn2-c1ccsc1)C(F)(F)F (stereo not shown) [Example 19, 1,1,1-Trifluoro-4-[5-fluoro-2-(methyloxy)phenyl]-4-methyl-2-({[6-methyl-1-(3-thienyl)-1H-pyrazolo[3,4-d]pyrimidin-4-yl]amino}methyl)-2-pentanol]
glucocorticoid binding pIC50 (glucocorticoid receptor): > 6.5
pEC50, progesterone receptor activity (Progesterone Receptor): < 5.5

COc1ccc(F)cc1C(C)(C)CC(O)(CNc1nc(C)nc2c1cnn2-c1cccnc1F)C(F)(F)F (stereo not shown) [Example 28, 1,1,1-Trifluoro-4-[5-fluoro-2-(methyloxy)phenyl]-2-({[1-(2-fluoro-3-pyridinyl)-6-methyl-1H-pyrazolo[3,4-d]pyrimidin-4-yl]amino}methyl)-4-methyl-2-pentanol]
glucocorticoid binding pIC50 (glucocorticoid receptor): > 6.5
pEC50, progesterone receptor activity (Progesterone Receptor): < 5.5

COc1ccc(F)cc1C(C)(C)CC(O)(CNc1nc(C)nc2c1cnn2-c1ccccc1)C(F)(F)F (stereo not shown) [Example 13, 1,1,1-Trifluoro-4-[5-fluoro-2-(methyloxy)phenyl]-4-methyl-2-{[(6-methyl-1-phenyl-1H-pyrazolo[3,4-d]pyrimidin-4-yl)amino]methyl}-2-pentanol]
glucocorticoid binding pIC50 (glucocorticoid receptor): > 6.5
pEC50, progesterone receptor activity (Progesterone Receptor): < 5.5

COc1ccc(F)cc1C(C)(C)CC(O)(CNc1nc(C)nc2c1cnn2-c1ccc(F)cc1F)C(F)(F)F (stereo not shown) [Example 16, 2-({[1-(2,4-Difluorophenyl)-6-methyl-1H-pyrazolo[3,4-d]pyrimidin-4-yl]amino}methyl)-1,1,1-trifluoro-4-[5-fluoro-2-(methyloxy)phenyl]-4-methyl-2-pentanol]
glucocorticoid binding pIC50 (glucocorticoid receptor): > 6.5
pEC50, progesterone receptor activity (Progesterone Receptor): < 5.5

Cc1nc(NCC(O)(CC(C)(C)c2cc(F)ccc2O)C(F)(F)F)c2cnn(-c3ccc(F)cc3F)c2n1 (single isomer, unassigned) [Example 25, 2-[3-({[1-(2,4-Difluorophenyl)-6-methyl-1H-pyrazolo[3,4-d]pyrimidin-4-yl]amino}methyl)-4,4,4-trifluoro-3-hydroxy-1,1-dimethylbutyl]-4-fluorophenol]
glucocorticoid binding pIC50 (glucocorticoid receptor): > 6.5
pEC50, progesterone receptor activity (Progesterone Receptor): < 5.5

COc1ccc(F)cc1C(C)(C)CC(O)(CNc1nc(C)nc2c1cnn2-c1ccccc1F)C(F)(F)F (stereo not shown) [Example 14, 1,1,1-Trifluoro-4-[5-fluoro-2-(methyloxy)phenyl]-2-({[1-(2-fluorophenyl)-6-methyl-1H-pyrazolo[3,4-d]pyrimidin-4-yl]amino}methyl)-4-methyl-2-pentanol]
glucocorticoid binding pIC50 (glucocorticoid receptor): > 6.5
pEC50, progesterone receptor activity (Progesterone Receptor): < 5.5

COc1ccc(F)cc1C(C)(C)CC(O)(CNc1nc(C)nc2c1cnn2-c1cccc(C#N)c1)C(F)(F)F (stereo not shown) [Example 27, 3-(4-{[4-[5-Fluoro-2-(methyloxy)phenyl]-2-hydroxy-4-methyl-2-(trifluoromethyl)pentyl]amino}-6-methyl-1H-pyrazolo[3,4-d]pyrimidin-1-yl)benzonitrile]
glucocorticoid binding pIC50 (glucocorticoid receptor): > 6.5
pEC50, progesterone receptor activity (Progesterone Receptor): < 5.5

CCOC(=O)c1cccc(-n2ncc3c(NCC(O)(CC(C)(C)c4cc(F)ccc4OC)C(F)(F)F)nc(C)nc32)c1 (stereo not shown) [Example 22, Ethyl 3-(4-{[4-[5-fluoro-2-(methyloxy)phenyl]-2-hydroxy-4-methyl-2-(trifluoromethyl)pentyl]amino}-6-methyl-1H-pyrazolo[3,4-d]pyrimidin-1-yl)benzoate]
glucocorticoid binding pIC50 (glucocorticoid receptor): > 6.5
pEC50, progesterone receptor activity (Progesterone Receptor): < 5.5

COc1ccc(F)cc1C(C)(C)CC(O)(CNc1nc(C)nc2c1cnn2-c1cccnc1)C(F)(F)F (stereo not shown) [Example 17, 1,1,1-Trifluoro-4-[5-fluoro-2-(methyloxy)phenyl]-4-methyl-2-({[6-methyl-1-(3-pyridinyl)-1H-pyrazolo[3,4-d]pyrimidin-4-yl]amino}methyl)-2-pentanol]
glucocorticoid binding pIC50 (glucocorticoid receptor): > 6.5
pEC50, progesterone receptor activity (Progesterone Receptor): < 5.5
